Data as given in PubChem BioAssay AID493014 (National Center for Advancing Translational Sciences (NCATS), 2011).
This is one part of the list. Shown are side measurements of this screen, not its main read-out; they come without a call. Most of these compounds were active or inconclusive in the main read-out, so they are no random draw. Potencies come from curve fits of mixed quality, noted in brackets.

Assay: qHTS Assay to Find Inhibitors of Chronic Active B-Cell Receptor Signaling
Settings: ABC-DLBCL IkBa-CBG/CBR reporter, luminescence ratio (green luciferase fused to IkBa over red control in TMD8 lymphoma cells), 4 h
Summary of the method: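 Cell line TMD8 (human ABC DLBCL), stably expressing tet-inducible CBG68-IkBa fusion and CBR; IMDM/0.5% FBS; cpd up to 46 uM; dox induction, 4 h, 37C/5% CO2; dual luminescence; green/red ratio; MG132 control.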

[1] = measured here: CBR red luminescence, cell number
[2] = measured here: IkBa-CBG green luminescence

SMILES: O=C(NN=C1CCCCCCC1)c1ccc(F)cc1
- AC50 [1]: 8.91 µM [falling, partial curve]

SMILES: Cc1ccc(NC(=O)Nc2ccccc2C(N)=O)cc1
- AC50 [1]: 3.98 µM [falling, partial curve, poor fit]

SMILES: O=C(Nc1c(-c2ccc(F)cc2)nc2ccccn12)c1ccc(F)cc1
- AC50 [1]: 0.224 µM [rising, full curve, poor fit]

SMILES: COC(=O)CCCCCCCCC(O)CN(C)C (stereo not drawn)
- AC50 [1]: 14.1 µM [rising, partial curve]

SMILES: CCOc1ccc(NC(=O)C(C)Oc2ccccc2C(=O)Nc2ccc(C)c(Cl)c2)cc1 (stereo not drawn)
- AC50 [1]: 1 µM [rising, partial curve]

SMILES: CCN1CCN(S(=O)(=O)c2ccc(Cl)c(C(=O)N(C)Cc3cccs3)c2)CC1
- AC50 [1]: 29.1 µM [rising, single point]

SMILES: O=C(NNC(=S)NC(=O)c1cccc([N+](=O)[O-])c1)c1ccc(O)cc1
- AC50 [1]: 25.1 µM [falling, single point]

SMILES: Cc1nc2nc(SCC(=O)c3cccc([N+](=O)[O-])c3)[nH]c2cc1Br
- AC50 [1]: 16.4 µM [falling, partial curve, poor fit]

SMILES: CSc1ccc(Cl)c(C(=O)OCC(=O)N2CCN(C(=O)c3ccco3)CC2)c1
- AC50 [2]: 25.9 µM [falling, partial curve, poor fit]

SMILES: COc1cc(C(C)=O)ccc1OC(C)C(=O)Nc1ccc(S(=O)(=O)N2CCCC2)cc1 (stereo not drawn)
- AC50 [1]: 29.1 µM [rising, single point]

SMILES: CCn1c(C(=O)N2CCCC(C(=O)NCCc3ccc(C)cc3)C2)cc2sccc21 (stereo not drawn)
- AC50 [1]: 15.8 µM [falling, single point]

SMILES: Cc1ccc(-c2nnn(Cc3nc4ccccc4s3)n2)cc1
- AC50 [1]: 6.51 µM [rising, single point]

SMILES: COc1ccc(Nc2nc(Cl)nc(Nc3ccc(OC)cc3)n2)cc1
- AC50 [1]: 0.562 µM [falling, partial curve, poor fit]

SMILES: NC(=S)N/N=C/c1coc2cc(Br)ccc2c1=O
- AC50 [1]: 7.94 µM [rising, partial curve]
- AC50 [2]: 7.08 µM [rising, full curve, poor fit]

SMILES: CCN(C(=O)CSc1nc2ccccc2c(=O)n1-c1ccccc1F)C1CCS(=O)(=O)C1 (stereo not drawn)
- AC50 [1]: 4.11 µM [rising, single point]

SMILES: Cc1cc(C)c2nc(Nc3nc(-c4ccccc4)cc(=O)[nH]3)nc(C)c2c1
- AC50 [1]: 15.8 µM [falling, partial curve]

SMILES: COc1ccc(CCNC(=O)CCS(=O)(=O)Cc2ccccc2C)cc1OC
- AC50 [1]: 0.1 µM [rising, full curve, poor fit]

SMILES: C=CCNC(=S)N/N=C(\C)c1cccnc1
- AC50 [1]: 35.5 µM [falling, single point]
- AC50 [2]: 35.5 µM [falling, single point]

SMILES: CCOC(=O)c1ccc(N2CCCCC2)c(NS(=O)(=O)c2ccc(C)cc2)c1
- AC50 [1]: 35.5 µM [rising, single point]
- AC50 [2]: 35.5 µM [falling, single point]

SMILES: CCN(CC)S(=O)(=O)c1cc(NS(=O)(=O)c2cccc(Cl)c2Cl)ccc1C
- AC50 [1]: 18.4 µM [falling, single point]

SMILES: O=C(NCc1ccc(Cl)cc1)c1noc2c1CCCC2
- AC50 [1]: 8.2 µM [rising, partial curve]

SMILES: COc1ccc(NC(=O)CC2C(=O)NCCN2C(=O)Nc2ccc(C(F)(F)F)cc2)cc1 (stereo not drawn)
- AC50 [1]: 14.1 µM [falling, single point]

SMILES: CC(=O)c1ccc(Sc2ccccn2)c([N+](=O)[O-])c1
- AC50 [1]: 6.31 µM [rising, single point]

SMILES: CCCCC/C=C/C1=CC(=O)C[C@H](c2ccc(OC)cc2)C1
- AC50 [1]: 1.3 µM [falling, partial curve]

SMILES: O=C(Nc1ccc2ccccc2n1)c1ccc(Cl)cc1
- AC50 [1]: 7.08 µM [falling, partial curve]

SMILES: CC1=CCC2C(=O)N(c3cc(C)on3)C(=O)C2C1 (stereo not drawn)
- AC50 [1]: 13 µM [falling, partial curve]

SMILES: Cn1cnnc1SC(C(=O)Nc1ccc(F)cc1)c1ccccc1 (stereo not drawn)
- AC50 [1]: 29.1 µM [rising, single point]

SMILES: NC(=O)COC(=O)c1ccc(Cl)c(S(=O)(=O)N2CCN(c3ccc(F)cc3)CC2)c1
- AC50 [1]: 35.5 µM [falling, single point]

SMILES: CC(C)CNC(=O)COc1ccc2c3c(c(=O)oc2c1)CCC3
- AC50 [1]: 17.8 µM [rising, partial curve, poor fit]

SMILES: OC(C[n+]1ccccc1)c1ccccc1 (stereo not drawn)
- AC50 [1]: 35.5 µM [rising, single point]

SMILES: Cc1cnc(NC(=O)CCCSc2nc3ccccc3s2)s1
- AC50 [1]: 2.24 µM [rising, partial curve, poor fit]

SMILES: Cc1cccc(C)c1OCc1nc2ccccc2c(=O)n1/N=C/c1c[nH]c2ccccc12
- AC50 [1]: 29.1 µM [falling, single point]

SMILES: CCOC(=O)c1oc2ccccc2c1NC(=O)CCl
- AC50 [1]: 20 µM [falling, partial curve, poor fit]

SMILES: O=C(Nc1ccc2c(c1)OCO2)Nc1ccccc1F
- AC50 [1]: 3.98 µM [falling, full curve]

SMILES: Nc1c(-c2ccccn2)cnn1-c1nc(-c2ccc(F)cc2)cs1
- AC50 [1]: 3.16 µM [rising, full curve, poor fit]

SMILES: N=c1n(CCN2CCCC2)c2ccccc2n1CC(O)c1ccc(Cl)c(Cl)c1 (stereo not drawn)
- AC50 [1]: 22.4 µM [falling, single point]

SMILES: Cc1ccc(S(=O)(=O)N(c2cccc(C)c2)C2CCS(=O)(=O)C2)cc1 (stereo not drawn)
- AC50 [1]: 0.092 µM [falling, full curve, poor fit]

SMILES: CCc1nnc(NC(=O)CSc2nnc(-c3ccc(S(=O)(=O)N(CC)CC)cc3)n2CC)s1
- AC50 [1]: 2.59 µM [falling, single point]

SMILES: CC(C)NC(=O)Cn1c(=O)c2c(ncn2Cc2ccccc2)n(Cc2ccccc2)c1=O
- AC50 [1]: 29.1 µM [falling, single point]

SMILES: CCC1(c2ccc(Cl)cc2)NC(=S)N(c2ccc(C)cc2)N1 (stereo not drawn)
- AC50 [1]: 23.1 µM [rising, partial curve, poor fit]

SMILES: Cc1onc(C(=O)N2CCC(Cc3ccccc3)CC2)c1[N+](=O)[O-]
- AC50 [1]: 7.08 µM [falling, full curve]

SMILES: Cc1ccc(NC(=O)c2ccc(N3C(=O)C4CC=C(Cl)CC4C3=O)cc2)cc1 (stereo not drawn)
- AC50 [1]: 0.116 µM [falling, full curve, poor fit]

SMILES: O=C(c1ccc(Cl)cc1)N1CCC(O)(CSc2ccc(Cl)cc2)CC1
- AC50 [1]: 14.1 µM [falling, single point]

SMILES: O=C(CC(NC(=O)c1ccccc1Cl)c1ccccc1)Nc1ccc2c(c1)OCO2 (stereo not drawn)
- AC50 [1]: 2.24 µM [rising, partial curve, poor fit]

SMILES: CCOC(=O)c1cc(C)nc(N2CCCCC2)c1C#N
- AC50 [1]: 7.08 µM [rising, partial curve]

SMILES: CN1CCN(CCCNCc2cn(CCC#N)c3ccccc23)CC1
- AC50 [1]: 5.62 µM [rising, single point]

SMILES: O=C(CSCc1cc(=O)n2nc(C3CC3)sc2n1)Nc1ccc(F)cc1
- AC50 [1]: 8.91 µM [falling, partial curve, poor fit]

SMILES: Cc1ccc2cc3cc(C(=O)NCCN4CCOCC4)oc3nc2c1
- AC50 [1]: 0.00461 µM [rising, full curve, poor fit]

SMILES: COc1cccc(Cn2c(=O)ccc3ccccc32)c1
- AC50 [1]: 15.8 µM [falling, partial curve, poor fit]

SMILES: O=S(=O)(Cc1ccccc1)N1CCN(Cc2ccccc2)CC1
- AC50 [1]: 18.4 µM [rising, single point]

SMILES: CCCCCc1ccc(-c2ccc(OCC)cc2)nc1
- AC50 [1]: 12.6 µM [rising, single point]

SMILES: O=C(Nc1nnc(S(=O)(=O)N2CCCC2)s1)c1ccccc1Cl
- AC50 [1]: 35.5 µM [rising, single point]

SMILES: COCCNC(=O)CSc1nc2scc(-c3ccccc3)c2c(=O)[nH]1
- AC50 [1]: 22.4 µM [rising, partial curve, poor fit]

SMILES: COc1ccc(OCc2cc(C(=O)NC3CCc4ccccc43)no2)c(Cl)c1 (stereo not drawn)
- AC50 [1]: 12.6 µM [falling, partial curve]

SMILES: O=C(Nc1ccc(-c2nc3ccccc3s2)cc1)C1=COCCO1
- AC50 [1]: 0.146 µM [rising, full curve, poor fit]

SMILES: CS(=O)(=O)c1ccc2nc(NC(=O)c3ccco3)sc2c1
- AC50 [1]: 23.1 µM [falling, single point]

SMILES: O=S(=O)(c1cc(Cl)ccc1Cl)N1CCCC1
- AC50 [1]: 2.06 µM [rising, partial curve, poor fit]

SMILES: COc1ccc(N2CCN(c3nc4c(C)cccn4c(=O)c3/C=C(\C#N)C(N)=O)CC2)cc1
- AC50 [1]: 12.6 µM [falling, partial curve]

SMILES: C=CCSc1nc(N)c(C(=O)Nc2ccccc2C)cc1C(N)=O
- AC50 [1]: 23.1 µM [falling, single point]

SMILES: Cc1ccc(S(=O)(=O)NCC(C)NS(C)(=O)=O)cc1 (stereo not drawn)
- AC50 [1]: 8.2 µM [falling, partial curve, poor fit]

SMILES: CCC(=O)NC(=Nc1nc2ccccc2s1)NC(=O)CC
- AC50 [1]: 20.6 µM [falling, single point]

SMILES: CCc1nc(NCC2CCCO2)c(C#N)c2c1COC(C)(C)C2 (stereo not drawn)
- AC50 [1]: 6.51 µM [rising, single point]

SMILES: COc1ccc(OCC(O)CN2C(=O)c3ccccc3S2(=O)=O)cc1 (stereo not drawn)
- AC50 [1]: 20 µM [rising, partial curve, poor fit]

SMILES: Cc1ccc2nsnc2c1NC(=O)c1ccc([N+](=O)[O-])o1
- AC50 [1]: 35.5 µM [falling, single point]

SMILES: O=C(Nc1ccc(Oc2cccnc2)cc1)C1CCCCN1Cc1ccc(CO)o1 (stereo not drawn)
- AC50 [1]: 35.5 µM [rising, single point]
